The values below come from PubChem BioAssay AID901 (National Center for Advancing Translational Sciences (NCATS), 2007).

The other results are listed elsewhere or left out. Further columns of the screen follow, without active or inactive calls. The list favours compounds with an active or inconclusive main result. The note in brackets gives the kind of curve behind each potency; many fits are weak.

The test is described as follows: qHTS Assay for Identifying the Cell-Membrane Permeable IMPase Inhibitors. Conditions: CHO-M1 cells, IP1 accumulation, HTRF TR-FRET ratio; measured here: donor channel 620 nm AC50.
As to `COc1ccc(CCn2c(SCC(=O)Nc3cc(C)on3)nc3ccsc3c2=O)cc1OC`, the AC50 is 1.12 µM [rising, full curve].
Regarding `COc1ccc(CNc2nc3nc(-c4ccccc4)cc(=O)n3[nH]2)cc1OC`, the AC50 was 35.5 µM [rising, single point].
As to `N#C/C(=C\c1ccc(N2CCOCC2)o1)c1nc2ccccc2[nH]1`, the AC50 is 20 µM [falling, single point].
Take `CO[C@]1(NC(=O)CSCC#N)C(=O)N2C(C(=O)O)=C(CSc3nnnn3C)CS[C@H]21`: the AC50 was 0.0501 µM [falling, full curve, poor fit].
With `COc1ccccc1N1CCN(S(=O)(=O)c2ccccc2F)CC1` the figure was 20 µM [falling, partial curve, poor fit]; with `COc1cccc(CN(Cc2cccnc2)S(=O)(=O)c2ccc(-n3cnnn3)c(C)c2)c1OC`, 0.0316 µM [falling, full curve].
Take `Clc1cccc(-c2ccc(/C=N/n3cnnc3)o2)c1`: the AC50 is 5.01 µM [rising, single point].
For the compound `CCn1nc(C)c(NC(=O)CCCSc2nc(-c3ccco3)cc(C(F)(F)F)n2)c1C`, the AC50 is 1 µM [falling, single point].
Take `CCOC(=O)N1CCN(C(=O)C(NC(=O)C2CCC(C)CC2)C(C)C)CC1` (centres undefined): the AC50 was 1.58 µM [rising, full curve, poor fit].
For `O=C(c1ccc(CS(=O)(=O)c2cccc(C(F)(F)F)c2)o1)N1CCN(c2ccccn2)CC1` the value was 5.01 µM [rising, single point]; for `O=C(Nc1ccc(F)cc1Cl)c1ccc2c(=O)n3c(nc2c1)CCCCC3`, 25.1 µM [falling, single point]; for `C=CCNc1nc(-c2sc(NC(C)=O)nc2C)cs1`, 15.8 µM [falling, partial curve, poor fit].
For `CCOC(=O)N1CCC(NC(=O)CSc2cc(=O)n(C)c3ccccc23)CC1`, the concentration at half-maximal activity (AC50) was 2 µM [rising, full curve].
Consider `CCOc1ccc2nc(NC(=O)C3CCCN(S(=O)(=O)c4cccs4)C3)sc2c1` (centres undefined), for which the AC50 was 5.01 µM [rising, single point].
For `COc1ccc(N2CCN(C(c3ccccc3)c3nnnn3Cc3ccc(F)cc3)CC2)cc1` (centres undefined), the AC50 was 0.794 µM [falling, full curve, poor fit].
Turning to `CCc1ccc(C2CC(=O)c3c([nH]c(C(=O)OC4CCCCCC4)c3C)C2)cc1` (centres undefined), the AC50 was 0.00316 µM [falling, full curve, poor fit].
In the case of `Cc1nn(C(=O)N2CCOCC2)c(C)c1C`, the half-maximal activity concentration (AC50) is 5.01 µM [falling, single point].
With `Cc1ccc(-c2nc3ccccc3n3c(C)nnc23)cc1` the figure was 0.00316 µM [falling, full curve, poor fit]; with `COCCn1c(=O)[nH]c(=O)c2c(C(F)(F)F)cc(-c3cccs3)nc21`, 35.5 µM [rising, single point]; with `Cc1cc2cc(OCC(=O)O)ccc2n1C`, 5.01 µM [falling, single point].
Regarding `C=CCN(C(=O)COc1ccccc1)c1nnc(-c2ccncc2)s1`, the AC50 was 25.1 µM [falling, single point].
On to `Cc1cc2cc3c(cc2nc1SCC(=O)Nc1nc(C)c(C)s1)OCO3`, for which the AC50 was 22.4 µM [rising, single point].
`O=C(CSc1nnc(CNC(=O)C23CC4CC(CC(C4)C2)C3)n1-c1ccc(F)cc1)Nc1ccccc1`: the AC50 was 31.6 µM [rising, single point].
On to `COc1ccc(-c2nn3c(-c4ccc(OC)cc4)nnc3c3ccccc23)cc1`, for which the concentration at half-maximal activity (AC50) is 0.794 µM [falling, full curve, poor fit].
With `O=C(CN1CCOCC1)Nc1ncc(Br)cc1Br` the figure was 0.00398 µM [falling, full curve, poor fit]; with `CCOC(=O)C1C(=O)CC(C)(O)C(C(=O)OCC)C1c1ccccc1` (centres undefined), 0.2 µM [rising, full curve]; with `COc1ccc(CN(CCC(c2ccc3c(c2)OCO3)c2ccccc2OC)C(C)=O)cc1` (centres undefined), 0.891 µM [falling, full curve].
For `O=C(Cc1ccc(-c2ccccc2)cc1)N1CCOCC1`, the AC50 is 3.98 µM [rising, partial curve, poor fit].
For `CCc1nnc(NC(=O)CSc2nc(C3CCCCC3)nc3ccccc23)s1` the value was 3.98 µM [rising, partial curve].
For `CN(C(=O)COC(=O)c1ccccc1Nc1ccccc1)C1CCS(=O)(=O)C1` (centres undefined), the AC50 was 0.794 µM [falling, full curve, poor fit].
Take `CCCCc1nc2sc3c(SCC(=O)NCc4ccco4)ncnc3c2c2c1CCC2`: the AC50 is 3.16 µM [rising, partial curve, poor fit].
For `CCOC(=O)c1c(C)oc2ccc(N(C(=O)Oc3ccccc3)S(=O)(=O)c3ccccc3)cc12` the value was 35.5 µM [rising, single point].
`Cc1cccc(-n2ncc3c(NCCN4CCOCC4)ncnc32)c1`: the AC50 was 10 µM [rising, partial curve].
For the compound `Cc1nc2scc(C)n2c(=O)c1S(=O)(=O)Nc1ccc(N2CCOCC2)c(Cl)c1`, the AC50 is 5.62 µM [falling, single point].
With `Cc1nc2ccccc2nc1SCC(=O)N1CCC(C)CC1`, the AC50 is 12.6 µM [rising, partial curve].
As for `O=C(CN(C(=O)C1CSC(=O)C1)c1ccccc1F)NCc1ccc2c(c1)OCO2` (centres undefined), the AC50 was 3.98 µM [falling, single point].
With `COC(=O)c1ccc(/C=C/c2ccc3cccc(OC)c3n2)cc1` the figure was 11.2 µM [rising, single point]; with `NC(=O)c1ccccc1NC(=O)c1ccc(-c2ccc(Br)cc2)o1`, 15.8 µM [rising, single point].
Consider `CCOC(=O)CC(=O)CSc1ncnc2c1cnn2-c1ccccc1`, for which the concentration at half-maximal activity (AC50) is 6.31 µM [falling, single point].
With `COC(=O)c1ccccc1S(=O)(=O)Nc1ccc(OC)nc1` the figure was 31.6 µM [falling, single point]; with `Cc1nc2c(c(=O)n1CCC(C)C)c1nc3ccccc3nc1n2Cc1ccc2c(c1)OCO2`, 1 µM [rising, full curve, poor fit].
With `CCS(=O)(=O)n1nc(-c2ccccc2)nc1NCc1ccco1` the figure was 0.794 µM [falling, full curve]; with `Cc1ccccc1Cn1ccc(NC(=O)c2cnn3c2NC(c2ccccc2)CC3C(F)(F)F)n1` (centres undefined), 0.794 µM [falling, partial curve, poor fit]; with `CCOc1ccccc1-c1c2cc(O)c(=O)cc-2oc2cc(O)c(O)cc12`, 11.2 µM [falling, partial curve].
With `CC(C)Cn1[nH]c2c3c(ccc2c1=O)C(=O)c1ccccc1C3=O`, the AC50 is 10 µM [falling, partial curve].
For `COC(=O)CSc1nc(N)c(C#N)c(-c2ccco2)c1C#N` the value was 31.6 µM [rising, single point].
Turning to `COCCCNC(=O)CS(=O)(=O)Cc1nc(-c2ccccc2C)oc1C`, the AC50 is 35.5 µM [falling, partial curve, poor fit].
For `CCOc1ccc(-c2nc(SCC(=O)NCCOC)c(-c3ccc(OC)c(OC)c3)[nH]2)cc1`, the concentration at half-maximal activity (AC50) was 35.5 µM [falling, single point].
For the compound `CC1CCCC(N2C(=O)NC(NC(=O)c3ccco3)(C(F)(F)F)C2=O)C1C` (centres undefined), the AC50 was 10 µM [falling, partial curve, poor fit].
For `CC(C)Oc1cccc(C(=O)NC(=S)Nc2ccc3c4c(cccc24)CC3)c1` the value was 2.51 µM [rising, full curve, poor fit].
As for `CCCCOC(=O)C(NC(=O)c1ccccc1)=C(C)C`, the AC50 was 5.01 µM [falling, full curve, poor fit].
As to `Cc1cc2nn(-c3ccc(Cl)cc3)nc2cc1NC(=O)C(C)C`, the AC50 was 12.6 µM [rising, partial curve].
For `CCOc1ccccc1NC(=O)c1ccc(F)c(S(=O)(=O)N2CCC3(CC2)OCCO3)c1`, the AC50 is 1.26 µM [rising, full curve, poor fit].
For `COCCCN1C(=O)C(=O)/C(=C(/O)c2ccc(C)cc2)C1c1ccccc1` (centres undefined) the value was 0.316 µM [rising, full curve, poor fit]; for `COc1ccccc1NC(=O)NC1(C(=O)N2CCC(O)CC2)CCCCC1`, 0.0398 µM [falling, full curve, poor fit]; for `Cc1cc(C)cc(-n2nnc(C(=O)NCc3ccccc3)c2N)c1`, 8.91 µM [falling, partial curve].
With `COC(=O)[C@@H](NC(=O)Nc1ccc2c(c1)OCCO2)C(C)C` the figure was 0.0251 µM [rising, full curve, poor fit]; with `Oc1ccc(Cl)cc1-c1cc(-c2ccccc2)n[nH]1`, 7.94 µM [rising, full curve, poor fit]; with `COc1ccc(NC(=O)C(Cc2ccccc2)NS(=O)(=O)c2ccc(Br)s2)cc1OC` (centres undefined), 0.0282 µM [falling, full curve].
On to `O=C(Nc1ccc2c(c1)OCO2)N1CCOCC1`, for which the concentration at half-maximal activity (AC50) was 3.98 µM [rising, partial curve].
In the case of `Cc1ccc(-c2noc(CCC(=O)Nc3ccc(F)cc3Cl)n2)cc1`, the AC50 was 0.0316 µM [falling, full curve, poor fit].
For `Cc1cccc(/C=c2\s/c(=C\C(=O)C(C)(C)C)[nH]c2=O)c1` the value was 5.01 µM [falling, single point]; for `O=C(CSc1ncc(-c2ccc(F)cc2)[nH]1)Nc1cccc(O)c1`, 0.794 µM [falling, full curve, poor fit]; for `CCn1c2ccccc2c2cc(NC(=O)COc3cc(C)c(Cl)c(C)c3)ccc21`, 0.355 µM [falling, full curve].
